The campaign covered roughly 53,000 sequences. About 3,700 (7%) were called active.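 Rule for the calls: active = gene knockdowns whose robust z-score for IL-1 alpha signal is at least 2 or at most -2, so actives lie on both sides; inactive = the rest.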 The list shows a part of the results.
test: Components of the Cytosolic LPS Sensing Pathway: Gene Identification via Genome-wide siRNA Screen; settings: RAW264.7 macrophages, IL-1a HTRF, actives lie on both sides, screened at 100 nM (by protocol), cells primed 5 h with Pam3CSK4 first;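 note: robust z of the log signal after scaling to non-targeting control siRNA wells of the plate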
In short: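 RAW264.7 mouse macrophages reverse-transfected with single siRNAs (100 nM final) for 48h, primed with Pam3CSK4 for 5 hours, then transfected with LipidA for 24 hour. Supernatant IL-1a read by HTRF; values normalized to negative-control median, log-transformed robust z-scores.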

Sequence | z-score
GGCAAUAAAUAUCCAGAAATT against Crygn | inactive: 1.02
GGUAUGAUGUUUGUUUUGCTT against Tshz3 | inactive: 0.277
CCGUUUUGAGAUCUGUUAATT against 4930465K10Rik | inactive: -1.82
GGUCUGCUCAAUGCUAUCATT against Olfr918 | inactive: -1.47
GGUGAAGCUUCGAAUGACUTT against Slc25a10 | inactive: -0.1
CGAAGUUGUUGAGAACUCATT against Pcdhb18 | inactive: 0.325
GCAUAAGGUGGUUAAUGACTT against Rps15a | inactive: 0.582
GGCCAGCAUCCAUGUUUUATT against Cacng1 | inactive: 1.41
GGACCAGUUCCUUAAGUUUTT against Dpy19l1 | inactive: 0.872
GGCGAAGGUGUAGAAUCUCTT against Samd12 | active: 2.48
GCAUAGGCUAGGUUAUUAUTT against Lep | inactive: 0.839
GGCUUCUAAGCACAAAGUATT against Ppp2r5a | inactive: 1.14
GCCUUGUGGUAUUUGAUCGTT against Fbxw9 | inactive: 0.954
CGGGUAUGUGACUGUCAGUTT against Snf8 | inactive: -0.907
GGAAAGCACCCAAGAAAUGTT against Gspt1 | inactive: -0.915
GGUUUUCACCAUGCAUCAGTT against Mterf4 | inactive: -0.66
GCAGUCGAAGCACUAAAAATT against Dnaaf2 | inactive: 0.412
GGCUUUAUUUAUCAGGAUCTT against Lsamp | inactive: 1.17
GGCUAAAGAUCGCAUUCAGTT against Zdhhc6 | inactive: 0.596
GGAACUGUUUCUCUUUCCUTT against Rad9a | inactive: -1.45
CGCAUUCAAUUCCUUUCAATT against Aass | inactive: -0.232
GGACAUUUUUGACAUUGAATT against Masp1 | inactive: -0.527
GGAAUGACAAGCAACCAGCTT against Foxp1 | inactive: 0.539

Sequence | z-score
GGUCAGCAAAAGAGAUUCUTT against Zmym5 | inactive: -0.0742
GGUCCUGAGUGUCAAGUUUTT against Lrrc8c | inactive: -0.346
GGUUGUGUUAUUCAGAUCUTT against Olfr1316 | inactive: 0.152
CCAUUCUGUGAUUACUGAGTT against Olfr787 | inactive: -0.0288
GGAUGAACAUUAAACUUCGTT against Ctsb | inactive: 0.101
GGGAAAAGUGGGAGAUUUUTT against Rpn1 | inactive: 0.389
GGCUCUCAAUGCCUACUUUTT against Pou6f1 | inactive: 1.86
GGAUAUGAGCGGUAUUUUGTT against Trim34a | inactive: -0.179
GCCUAGGUAGCUGUGUUAUTT against Gucy2f | inactive: -0.00747
GCAAGUGCGACUGUAUCUGTT against Gdpd2 | active: -2.2
CCAAUGUCUACUCAGAUCUTT against Rab11fip4 | inactive: 0.815
GGACUUUGUGGACAAAAUUTT against Ift20 | inactive: -1.64
GCUUGACACAAGAGAUUGATT against Krt79 | inactive: -0.156
GGGAUGGACUUUUGACUGATT against Vmn1r219 | inactive: -0.0459
GCUUUCCGGAAUACGAGCUTT against Snapc3 | inactive: -0.638
GGACAAAGUGACUUCUUGUTT against Gng7 | inactive: -0.19
CCUCAAGAUAGGUUUCUACTT against Mmp23 | inactive: 0.613
CCAAGUGGAUCGAAGCCCATT against Endou | inactive: -1.42
CGCGGACAUCUAUGACAAATT against Phpt1 | inactive: 1.72
GGUUGAGGUUGGUAAAAAUTT against Havcr2 | inactive: 0.153
GCGGAAGUUAGAGUCGCUGTT against Bend3 | inactive: 0.325
GGAGAAGAAGAUUUUUGGCTT against Gpr108 | inactive: -0.684
GGAAUGCAGAAGAUUGUUATT against Olfr745 | inactive: 0.825

2 records picked at random from those above:
Sequence | z-score
GCGGAAGUUAGAGUCGCUGTT against Bend3 | inactive: 0.325
GGACAAAGUGACUUCUUGUTT against Gng7 | inactive: -0.19

Next part

Sequence | z-score
CGGUGCUCUUACAUAGCAGTT against Appbp2 | inactive: -0.292
GCAAAAUUUACUGUUAGACTT against Ccdc150 | inactive: -0.123
GGAUUCGAGUGGUAACAAGTT against Nmral1 | inactive: 0.617
CCACCCUCUCAUUACAGACTT against Atp13a4 | inactive: -0.487
GGAGAAUGCUUUCAUUGUATT against Gm9734 | inactive: 0.159
GCAGAAUGGCCUCUUCUACTT against C1qtnf2 | inactive: 0.197
GGUAAAGUGAACUGUACCUTT against Vstm5 | inactive: 0.843
GGUGUGAUAAUGAAACCAATT against Slc2a13 | inactive: -0.62
GGAGAAUUAGAAUAUGCUATT against Pithd1 | inactive: 0.0709
GGUGGUGGAAUGCUAAAAATT against Gys1 | active: 2.29
GGCCUUCAUUGAGAUGAACTT against Ptbp1 | inactive: -1.17
GCGAUUAGGCAAGUUCCAATT against Lyrm2 | inactive: 0.674
GGCCUUGAAUGAGCAUCAUTT against Krr1 | inactive: 0.548
GGACUUGCGCGACAAGAUUTT against Krt19 | inactive: 0.547
GGAAAUGGCACCAAUGUCATT against Slc25a24 | inactive: -0.38
GGGAUAUUCAAAAUACUAGTT against Hells | inactive: 0.653
GCUGAGAAAUUGUCUACGCTT against Bex3 | inactive: -0.115
GGUCCAAUUACUGAAGGUUTT against Spaca7 | active: 2.09
GGUCCUCCAAAAAAAGCAATT against Prl3c1 | inactive: 0.497
GCCGUCAUGUCUACAAUAATT against Clmp | inactive: 0.335
GGAGAACAUAAUGAAAUCUTT against Fam50a | inactive: -0.0744
GGUGGUACGCAGACUAAAUTT against Ulk1 | active: 2.94

As a short view, part of the list above.
Sequence | z-score
GGAUUCGAGUGGUAACAAGTT against Nmral1 | inactive: 0.617
CCACCCUCUCAUUACAGACTT against Atp13a4 | inactive: -0.487
GGAGAAUGCUUUCAUUGUATT against Gm9734 | inactive: 0.159

Reference: PubChem BioAssay AID1508600 (Functional Genomics Laboratory (NCATS/FGL), 2020)
